# Data as given in the supplement of paper PMC10849652.
# Chains of the proteins cited; added tags and fusions are not shown. Lines headed by an entry give the natural chain unless they say otherwise; changes in a name come on top.
# UniProt Q9NP73: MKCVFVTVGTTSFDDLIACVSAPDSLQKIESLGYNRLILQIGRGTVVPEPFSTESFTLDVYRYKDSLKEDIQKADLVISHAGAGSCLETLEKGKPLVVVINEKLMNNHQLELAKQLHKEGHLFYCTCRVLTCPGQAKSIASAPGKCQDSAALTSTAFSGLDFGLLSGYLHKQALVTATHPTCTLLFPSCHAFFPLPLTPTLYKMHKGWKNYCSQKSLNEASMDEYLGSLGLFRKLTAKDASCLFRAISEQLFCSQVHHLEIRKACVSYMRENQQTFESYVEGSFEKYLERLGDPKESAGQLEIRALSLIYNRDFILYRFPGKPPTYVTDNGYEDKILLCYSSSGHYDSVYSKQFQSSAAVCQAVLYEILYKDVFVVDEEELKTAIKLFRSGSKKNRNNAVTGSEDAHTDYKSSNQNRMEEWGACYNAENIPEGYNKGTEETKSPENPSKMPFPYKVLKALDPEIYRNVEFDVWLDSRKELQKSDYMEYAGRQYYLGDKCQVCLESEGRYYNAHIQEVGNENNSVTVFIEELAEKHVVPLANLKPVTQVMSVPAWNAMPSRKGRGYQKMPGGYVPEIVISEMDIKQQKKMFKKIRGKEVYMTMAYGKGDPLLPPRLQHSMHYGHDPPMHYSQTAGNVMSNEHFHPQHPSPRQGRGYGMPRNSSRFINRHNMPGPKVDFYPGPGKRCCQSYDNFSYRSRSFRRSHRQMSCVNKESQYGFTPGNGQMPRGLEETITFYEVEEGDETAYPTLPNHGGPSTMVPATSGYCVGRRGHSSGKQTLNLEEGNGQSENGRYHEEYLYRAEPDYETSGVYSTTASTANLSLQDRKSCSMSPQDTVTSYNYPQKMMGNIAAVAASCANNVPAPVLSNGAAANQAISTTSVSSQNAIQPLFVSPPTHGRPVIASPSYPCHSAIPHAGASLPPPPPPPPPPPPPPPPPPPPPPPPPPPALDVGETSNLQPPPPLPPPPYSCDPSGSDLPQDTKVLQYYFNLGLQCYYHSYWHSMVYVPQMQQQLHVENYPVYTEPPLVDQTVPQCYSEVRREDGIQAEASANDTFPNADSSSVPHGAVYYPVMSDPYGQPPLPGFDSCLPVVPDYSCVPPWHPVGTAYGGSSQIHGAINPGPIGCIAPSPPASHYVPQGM
# UniProt P51857: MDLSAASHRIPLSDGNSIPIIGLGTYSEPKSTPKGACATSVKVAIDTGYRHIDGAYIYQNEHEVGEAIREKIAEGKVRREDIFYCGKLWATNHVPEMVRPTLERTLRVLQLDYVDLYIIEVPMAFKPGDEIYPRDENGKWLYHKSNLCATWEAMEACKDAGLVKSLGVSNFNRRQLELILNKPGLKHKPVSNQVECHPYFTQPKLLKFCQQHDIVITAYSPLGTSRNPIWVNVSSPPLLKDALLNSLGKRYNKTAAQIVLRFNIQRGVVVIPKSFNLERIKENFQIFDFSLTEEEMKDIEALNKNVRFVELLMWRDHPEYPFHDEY
# UniProt Q8N302: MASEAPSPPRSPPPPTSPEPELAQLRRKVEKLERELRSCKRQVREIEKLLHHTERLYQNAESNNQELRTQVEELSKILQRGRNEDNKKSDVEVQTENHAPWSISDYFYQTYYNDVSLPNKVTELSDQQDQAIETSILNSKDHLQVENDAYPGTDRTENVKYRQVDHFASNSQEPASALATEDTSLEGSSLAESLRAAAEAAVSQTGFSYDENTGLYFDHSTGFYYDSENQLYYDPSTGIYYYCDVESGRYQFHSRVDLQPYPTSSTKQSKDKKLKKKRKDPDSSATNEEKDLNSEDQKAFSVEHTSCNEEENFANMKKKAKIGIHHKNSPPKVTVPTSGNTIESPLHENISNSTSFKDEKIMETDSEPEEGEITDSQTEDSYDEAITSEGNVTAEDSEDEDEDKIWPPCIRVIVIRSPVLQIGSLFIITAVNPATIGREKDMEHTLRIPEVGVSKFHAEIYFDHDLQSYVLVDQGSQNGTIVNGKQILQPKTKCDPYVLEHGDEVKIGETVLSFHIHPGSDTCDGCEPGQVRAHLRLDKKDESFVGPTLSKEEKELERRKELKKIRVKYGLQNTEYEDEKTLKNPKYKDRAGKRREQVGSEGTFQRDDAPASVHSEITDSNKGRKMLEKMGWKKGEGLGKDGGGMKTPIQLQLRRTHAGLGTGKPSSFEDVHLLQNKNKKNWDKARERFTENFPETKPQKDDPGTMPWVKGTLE
# UniProt Q9NRZ5: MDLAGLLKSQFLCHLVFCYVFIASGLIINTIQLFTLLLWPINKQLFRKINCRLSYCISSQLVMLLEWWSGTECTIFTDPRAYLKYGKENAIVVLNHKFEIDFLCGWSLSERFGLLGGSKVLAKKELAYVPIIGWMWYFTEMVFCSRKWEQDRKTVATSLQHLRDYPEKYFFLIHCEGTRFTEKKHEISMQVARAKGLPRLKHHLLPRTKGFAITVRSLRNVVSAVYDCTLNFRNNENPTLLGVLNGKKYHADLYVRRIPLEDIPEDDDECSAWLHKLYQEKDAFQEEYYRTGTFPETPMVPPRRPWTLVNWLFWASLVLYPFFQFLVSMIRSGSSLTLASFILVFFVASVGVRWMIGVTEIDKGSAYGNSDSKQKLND
# UniProt O75342: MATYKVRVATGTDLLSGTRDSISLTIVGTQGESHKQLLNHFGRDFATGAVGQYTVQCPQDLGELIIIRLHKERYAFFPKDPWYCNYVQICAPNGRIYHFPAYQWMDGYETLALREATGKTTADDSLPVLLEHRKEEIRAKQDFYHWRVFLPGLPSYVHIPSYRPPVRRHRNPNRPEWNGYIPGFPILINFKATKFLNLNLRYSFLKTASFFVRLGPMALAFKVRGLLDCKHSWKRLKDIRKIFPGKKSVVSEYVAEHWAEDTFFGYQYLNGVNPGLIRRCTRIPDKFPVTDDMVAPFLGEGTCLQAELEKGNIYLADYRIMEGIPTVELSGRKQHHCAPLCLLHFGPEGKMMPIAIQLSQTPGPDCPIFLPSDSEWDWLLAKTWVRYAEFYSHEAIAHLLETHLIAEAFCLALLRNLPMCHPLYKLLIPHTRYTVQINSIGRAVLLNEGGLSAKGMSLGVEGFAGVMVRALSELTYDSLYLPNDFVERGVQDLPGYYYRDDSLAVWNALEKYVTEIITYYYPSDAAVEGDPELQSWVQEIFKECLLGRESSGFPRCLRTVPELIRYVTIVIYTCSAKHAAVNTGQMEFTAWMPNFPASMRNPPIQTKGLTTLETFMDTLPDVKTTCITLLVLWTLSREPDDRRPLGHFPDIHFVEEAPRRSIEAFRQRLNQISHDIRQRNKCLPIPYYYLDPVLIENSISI
# UniProt P35612: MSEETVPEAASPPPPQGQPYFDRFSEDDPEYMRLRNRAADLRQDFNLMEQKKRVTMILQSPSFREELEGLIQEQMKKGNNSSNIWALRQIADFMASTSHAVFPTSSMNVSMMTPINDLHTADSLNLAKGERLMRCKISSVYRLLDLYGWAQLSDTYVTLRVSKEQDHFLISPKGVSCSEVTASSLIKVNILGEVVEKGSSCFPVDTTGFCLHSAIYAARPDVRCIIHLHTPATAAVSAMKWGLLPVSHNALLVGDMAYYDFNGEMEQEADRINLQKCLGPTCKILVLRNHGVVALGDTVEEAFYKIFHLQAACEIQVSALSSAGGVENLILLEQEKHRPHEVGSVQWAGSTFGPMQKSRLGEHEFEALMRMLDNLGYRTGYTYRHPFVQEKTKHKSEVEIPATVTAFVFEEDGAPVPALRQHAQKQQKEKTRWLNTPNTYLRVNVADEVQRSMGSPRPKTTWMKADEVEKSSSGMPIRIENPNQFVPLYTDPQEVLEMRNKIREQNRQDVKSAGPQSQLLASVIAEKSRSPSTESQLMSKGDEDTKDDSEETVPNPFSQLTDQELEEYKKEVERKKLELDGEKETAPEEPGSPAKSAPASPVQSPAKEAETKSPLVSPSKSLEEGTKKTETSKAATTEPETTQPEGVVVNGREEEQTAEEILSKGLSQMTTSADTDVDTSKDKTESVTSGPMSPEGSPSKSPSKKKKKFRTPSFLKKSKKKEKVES
# UniProt Q04828: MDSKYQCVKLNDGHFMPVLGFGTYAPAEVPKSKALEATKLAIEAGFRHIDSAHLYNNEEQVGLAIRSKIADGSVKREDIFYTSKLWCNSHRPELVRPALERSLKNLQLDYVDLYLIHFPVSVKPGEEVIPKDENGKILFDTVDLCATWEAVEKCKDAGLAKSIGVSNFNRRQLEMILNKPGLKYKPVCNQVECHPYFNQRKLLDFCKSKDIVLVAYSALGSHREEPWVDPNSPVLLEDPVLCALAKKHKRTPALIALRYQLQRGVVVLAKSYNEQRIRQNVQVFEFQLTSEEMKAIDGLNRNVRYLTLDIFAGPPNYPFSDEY
# UniProt O75891: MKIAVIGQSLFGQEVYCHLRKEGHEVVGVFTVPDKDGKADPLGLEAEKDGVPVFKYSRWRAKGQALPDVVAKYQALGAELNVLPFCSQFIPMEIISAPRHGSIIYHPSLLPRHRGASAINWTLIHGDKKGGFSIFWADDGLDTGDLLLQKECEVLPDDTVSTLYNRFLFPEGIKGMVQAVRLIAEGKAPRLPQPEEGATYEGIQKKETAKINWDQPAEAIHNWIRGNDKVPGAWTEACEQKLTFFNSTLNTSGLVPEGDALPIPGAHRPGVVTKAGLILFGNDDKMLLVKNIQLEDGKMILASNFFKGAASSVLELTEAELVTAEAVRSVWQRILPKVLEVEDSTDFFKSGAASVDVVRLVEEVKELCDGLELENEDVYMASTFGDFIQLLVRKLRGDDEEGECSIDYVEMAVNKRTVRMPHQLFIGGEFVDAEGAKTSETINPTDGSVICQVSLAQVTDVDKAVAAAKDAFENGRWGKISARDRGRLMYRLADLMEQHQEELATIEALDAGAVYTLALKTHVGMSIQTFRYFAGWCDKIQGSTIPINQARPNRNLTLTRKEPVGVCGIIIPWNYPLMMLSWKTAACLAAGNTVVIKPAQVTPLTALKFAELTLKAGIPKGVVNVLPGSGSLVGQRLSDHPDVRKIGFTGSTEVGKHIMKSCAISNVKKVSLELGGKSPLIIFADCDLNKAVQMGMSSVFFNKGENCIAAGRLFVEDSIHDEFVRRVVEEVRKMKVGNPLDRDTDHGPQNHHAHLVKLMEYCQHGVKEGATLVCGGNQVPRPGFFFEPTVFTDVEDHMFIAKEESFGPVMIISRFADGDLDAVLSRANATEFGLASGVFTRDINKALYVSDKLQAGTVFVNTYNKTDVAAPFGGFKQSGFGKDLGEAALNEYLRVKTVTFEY
# UniProt Q6RW13: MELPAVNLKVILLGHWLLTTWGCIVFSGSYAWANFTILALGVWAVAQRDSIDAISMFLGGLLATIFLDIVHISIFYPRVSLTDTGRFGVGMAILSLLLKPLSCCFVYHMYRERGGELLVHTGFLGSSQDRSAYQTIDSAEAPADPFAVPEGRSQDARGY
# UniProt P49419: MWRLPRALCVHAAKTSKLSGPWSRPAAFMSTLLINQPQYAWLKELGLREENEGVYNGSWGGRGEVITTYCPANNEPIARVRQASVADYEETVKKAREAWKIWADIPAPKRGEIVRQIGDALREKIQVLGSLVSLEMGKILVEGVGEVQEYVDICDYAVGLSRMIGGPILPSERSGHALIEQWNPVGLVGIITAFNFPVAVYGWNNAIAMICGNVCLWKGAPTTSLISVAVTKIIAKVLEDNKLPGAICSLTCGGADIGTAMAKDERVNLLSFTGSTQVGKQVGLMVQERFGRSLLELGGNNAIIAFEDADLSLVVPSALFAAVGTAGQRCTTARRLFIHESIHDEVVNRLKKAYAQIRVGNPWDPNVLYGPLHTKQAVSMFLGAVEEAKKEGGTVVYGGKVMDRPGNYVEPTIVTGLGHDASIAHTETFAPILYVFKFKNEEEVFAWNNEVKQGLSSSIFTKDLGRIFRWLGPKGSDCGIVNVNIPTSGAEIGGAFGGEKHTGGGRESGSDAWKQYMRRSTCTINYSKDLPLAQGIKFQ
# UniProt Q9H8T0: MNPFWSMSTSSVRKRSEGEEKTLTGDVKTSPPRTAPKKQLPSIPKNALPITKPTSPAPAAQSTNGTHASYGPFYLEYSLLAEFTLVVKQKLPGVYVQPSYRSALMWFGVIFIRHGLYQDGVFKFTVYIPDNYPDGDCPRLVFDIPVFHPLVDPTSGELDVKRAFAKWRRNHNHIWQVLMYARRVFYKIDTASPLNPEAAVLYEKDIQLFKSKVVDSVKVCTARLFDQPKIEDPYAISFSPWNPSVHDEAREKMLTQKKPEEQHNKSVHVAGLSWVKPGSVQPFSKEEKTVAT
# UniProt Q9NYG5, whole entry, looked up: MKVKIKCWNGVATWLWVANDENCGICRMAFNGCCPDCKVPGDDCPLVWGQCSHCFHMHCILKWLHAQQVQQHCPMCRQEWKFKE
# UniProt Q9NVV5: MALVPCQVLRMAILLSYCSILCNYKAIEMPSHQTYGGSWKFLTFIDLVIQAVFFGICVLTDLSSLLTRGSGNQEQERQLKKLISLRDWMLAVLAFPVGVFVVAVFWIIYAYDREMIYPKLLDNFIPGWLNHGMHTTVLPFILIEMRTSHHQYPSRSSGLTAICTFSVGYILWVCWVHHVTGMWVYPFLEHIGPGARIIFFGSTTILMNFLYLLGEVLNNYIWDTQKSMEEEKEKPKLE
# UniProt Q9BS18, whole entry, looked up: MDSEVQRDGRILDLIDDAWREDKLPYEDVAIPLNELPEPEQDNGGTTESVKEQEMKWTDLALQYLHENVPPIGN
# This is one part of the list. Residues, ends and D or L forms follow the SMILES beside them. *: point of attachment. Cbz = O=C(OCc1ccccc1)*
# What was measured:
# Test in all cases: log2 fold change, soluble protein after heating vs DMSO (PISA); higher = thermal stabilisation; K562 cells, 10 uM, 30 min; active = over 0.2 and 3.5 SD of the protein, either way, in both replicates (recomputed)
# ibrutinib = compound: C=CC(=O)N1CCC[C@@H](n2nc(-c3ccc(Oc4ccccc4)cc3)c3c(N)ncnc32)C1 [ibrutinib]
# Procedure, shortened: (§1)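 Quantification of soluble protein used TMTpro 16plex LC-MS/MS, with channel sums equalised. Samples were the supernatant after 21,000xg for 90 min of pooled aliquots from K562 cells (2×10^6 cells/mL) treated with 10 μM compound for 30 min, heated for 3 min over 48°C-58°C, and extracted in PBS with 0.5% NP-40 at 4°C. Values, from duplicates, describe thermal stability against control samples on a log2 fold-change scale.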
# [1] = compound: CC(=O)c1cnc2ccc(-c3cc(Cl)c(O)c(Cl)c3)nc2c1N[C@H]1CC[C@H](CN(C)C)CC1
# Procedure, shortened: as §1
# [2] = compound: CC(C)(O)CC(=O)NCCn1ccc2ncnc(Nc3ccc(Oc4cccc(C(F)(F)F)c4)c(Cl)c3)c21
# Procedure, shortened: as §1
# [3] = compound: CC1=C(C(CC(=O)N1)C2=CC=C(C=C2)C(F)(F)F)C(=O)NC3=C(C=C4C(=C3)C=NN4)F
# Procedure, shortened: as §1
# [4] = compound: CC1=CC=C(C=C1)SC2=C3C=C(SC3=CN=C2)C(=O)N
# Procedure, shortened: as §1
# Nexturastat A = compound: CCCCN(Cc1ccc(C(=O)NO)cc1)C(=O)Nc1ccccc1 [Nexturastat A]
# Procedure, shortened: as §1
# vemurafenib = compound: CCCS(=O)(=O)Nc1ccc(F)c(C(=O)c2c[nH]c3ncc(-c4ccc(Cl)cc4)cc23)c1F [vemurafenib]
# Procedure, shortened: as §1
# [5] = compound: CCCS(=O)(=O)Nc1ccc(F)c(C(=O)c2c[nH]c3ncc(Cl)cc23)c1F
# Procedure, shortened: as §1
# [6] = compound: CCCc1cc(C)[nH]c(=O)c1CNC(=O)c1cc(-c2ccnc(N3CCN(C)CC3)c2)cc2c1cnn2C(C)C
# Procedure, shortened: as §1
# barasertib = compound: CCN(CCCOc1ccc2c(Nc3cc(CC(=O)Nc4cccc(F)c4)[nH]n3)ncnc2c1)CCOP(=O)(O)O [barasertib]
# Procedure, shortened: as §1
# [7] = compound: CC(C)C1=C2N=C(C=C(N2N=C1)NCC3=CC=CC=C3)NCCCCCCN
# Procedure, shortened: as §1
# [8] = compound: CC1=C(C=C(C=C1)NC(=O)C2=CC(=CC=C2)C(C)(C)C#N)NC3=CC4=C(C=C3)N=CN(C4=O)C
# Procedure, shortened: as §1
# givinostat = compound: CCN(CC)Cc1ccc2cc(COC(=O)Nc3ccc(C(=O)NO)cc3)ccc2c1 [givinostat]
# Procedure, shortened: as §1
# [9] = compound: CC1=C(C2=C(C=C1)C(=O)C3=CC=CC=C3N2CCCN)C
# Procedure, shortened: as §1
# ralimetinib = compound: CC(C)(C)Cn1c(N)nc2ccc(-c3[nH]c(C(C)(C)C)nc3-c3ccc(F)cc3)nc21 [ralimetinib]
# Procedure, shortened: as §1
# [10] = compound: CC(C)C[C@@H](C=O)NC(=O)[C@H](CC(C)C)NC(=O)[C@H](CC(C)C)NC(=O)OCc1ccccc1
# Procedure, shortened: as §1
# [11] = compound: CC1=C(C=C(C=C1)NC(=O)C2=CC(=CC=C2)N(C)C)NC(=O)C3=CC=C(C=C3)O
# Procedure, shortened: as §1
target,measurement,setting,value
ALG13 isoform 2 (UniProt Q9NP73),log2 fold change,ibrutinib,inactive: -0.051
same,log2 fold change,[1],inactive: 0.026
same,log2 fold change,[2],inactive: 0.026
same,log2 fold change,[3],inactive: -0.107
same,log2 fold change,[4],inactive: 0.022
same,log2 fold change,Nexturastat A,inactive: -0.227
same,log2 fold change,vemurafenib,inactive: -0.034
same,log2 fold change,[5],inactive: 0.089
same,log2 fold change,[6],inactive: -0.083
same,log2 fold change,barasertib,inactive: 0.066
ADPRM (UniProt Q3LIE5),log2 fold change,ibrutinib,inactive: -0.014
same,log2 fold change,[7],inactive: 0.075
same,log2 fold change,[8],inactive: 0.075
same,log2 fold change,givinostat,inactive: 0.049
same,log2 fold change,barasertib,inactive: 0.012
AMOTL1 (UniProt Q8IY63),log2 fold change,ibrutinib,inactive: -0.074
same,log2 fold change,barasertib,inactive: -0.119
AKR1D1 (UniProt P51857),log2 fold change,ibrutinib,inactive: 0.094
same,log2 fold change,[1],inactive: 0.082
same,log2 fold change,[9],inactive: -0.209
same,log2 fold change,[4],inactive: 0.023
same,log2 fold change,vemurafenib,inactive: -0.018
same,log2 fold change,[5],inactive: -0.034
same,log2 fold change,barasertib,inactive: -0.082
AMMECR1 (UniProt Q9Y4X0),log2 fold change,[1],inactive: -0.009
same,log2 fold change,ralimetinib,inactive: 0.187
same,log2 fold change,[2],inactive: -0.028
same,log2 fold change,[7],inactive: -0.175
same,log2 fold change,[10],inactive: 0.043
same,log2 fold change,[11],inactive: -0.129
same,log2 fold change,Nexturastat A,inactive: 0.183
same,log2 fold change,vemurafenib,inactive: 0.117
same,log2 fold change,givinostat,inactive: 0.21
AGGF1 (UniProt Q8N302),log2 fold change,ibrutinib,inactive: 0.065
same,log2 fold change,[7],inactive: 0.097
same,log2 fold change,[6],inactive: 0.097
same,log2 fold change,givinostat,inactive: 0.184
same,log2 fold change,barasertib,inactive: 0.147
AGPAT4 (UniProt Q9NRZ5),log2 fold change,ibrutinib,inactive: -0.002
same,log2 fold change,ralimetinib,inactive: 0.016
same,log2 fold change,[7],inactive: -0.122
same,log2 fold change,[10],inactive: 0.039
same,log2 fold change,[3],inactive: 0.105
same,log2 fold change,[9],inactive: -0.059
same,log2 fold change,[8],inactive: 0.059
same,log2 fold change,[11],inactive: 0.067
same,log2 fold change,[4],inactive: -0.003
same,log2 fold change,[5],inactive: 0.09
same,log2 fold change,[6],inactive: -0.213
same,log2 fold change,givinostat,inactive: -0.043
same,log2 fold change,barasertib,inactive: -0.034
AMBRA1 isoform 5 (UniProt Q9C0C7),log2 fold change,ibrutinib,inactive: -0.307
same,log2 fold change,[1],inactive: -0.131
same,log2 fold change,[2],inactive: -0.085
same,log2 fold change,[9],inactive: -0.285
same,log2 fold change,Nexturastat A,inactive: 0.109
same,log2 fold change,vemurafenib,inactive: -0.034
same,log2 fold change,[6],inactive: 0.054
same,log2 fold change,barasertib,inactive: 0.017
AFMID isoform 2 (UniProt Q63HM1),log2 fold change,vemurafenib,inactive: 0.048
same,log2 fold change,[6],inactive: -0.115
AMZ2 (UniProt Q86W34),log2 fold change,ralimetinib,inactive: 0.223
same,log2 fold change,[2],inactive: 0.006
same,log2 fold change,[10],inactive: 0.004
same,log2 fold change,[8],inactive: -0.025
same,log2 fold change,[11],inactive: 0.08
same,log2 fold change,[4],inactive: 0.048
same,log2 fold change,Nexturastat A,inactive: 0.143
same,log2 fold change,[5],inactive: -0.034
same,log2 fold change,[6],inactive: -0.004
AGA (UniProt P20933),log2 fold change,ibrutinib,inactive: -0.075
same,log2 fold change,[7],inactive: 0.02
same,log2 fold change,[4],inactive: -0.198
same,log2 fold change,[5],inactive: -0.366
same,log2 fold change,[6],inactive: 0.018
same,log2 fold change,givinostat,inactive: -0.063
same,log2 fold change,barasertib,inactive: 0.042
ADIPOR2 (UniProt Q86V24),log2 fold change,ibrutinib,inactive: -0.018
same,log2 fold change,[1],inactive: -0.024
same,log2 fold change,[7],inactive: -0.074
same,log2 fold change,[9],inactive: -0.057
same,log2 fold change,[4],inactive: 0.013
same,log2 fold change,vemurafenib,inactive: 0.026
same,log2 fold change,[5],inactive: -0.1
same,log2 fold change,givinostat,inactive: 0.037
same,log2 fold change,barasertib,inactive: -0.103
ALOX12B (UniProt O75342),log2 fold change,ibrutinib,inactive: -0.036
same,log2 fold change,[1],inactive: -0.318
same,log2 fold change,ralimetinib,inactive: -0.008
same,log2 fold change,[10],inactive: -0.439
same,log2 fold change,[9],inactive: 0.715
same,log2 fold change,[8],inactive: 0.011
same,log2 fold change,[11],inactive: 0.221
same,log2 fold change,[4],inactive: 0.268
same,log2 fold change,vemurafenib,inactive: 0.489
same,log2 fold change,[5],inactive: -0.048
same,log2 fold change,[6],inactive: 0.181
same,log2 fold change,barasertib,inactive: -0.17
ALOX5 (UniProt P09917),log2 fold change,[9],inactive: 0.056
ALMS1 (UniProt Q8TCU4),log2 fold change,ibrutinib,inactive: -0.03
same,log2 fold change,[7],inactive: -0.707
same,log2 fold change,[3],inactive: -0.016
same,log2 fold change,givinostat,inactive: 0.036
same,log2 fold change,barasertib,inactive: 0.086
ADD2 isoform 9 (UniProt P35612),log2 fold change,ibrutinib,inactive: -0.098
same,log2 fold change,ralimetinib,inactive: 0.145
same,log2 fold change,[10],inactive: -0.103
same,log2 fold change,[8],inactive: 0.191
same,log2 fold change,[11],inactive: 0.065
same,log2 fold change,[4],inactive: -0.067
same,log2 fold change,[5],inactive: -0.114
same,log2 fold change,[6],inactive: 0.079
same,log2 fold change,barasertib,inactive: 0.047
AKR1C1 (UniProt Q04828),log2 fold change,[6],inactive: -0.084
AFF4 (UniProt Q9UHB7),log2 fold change,ibrutinib,inactive: -0.032
same,log2 fold change,[1],inactive: -0.273
same,log2 fold change,[2],inactive: -0.002
same,log2 fold change,[7],inactive: -0.207
same,log2 fold change,[8],inactive: 0.091
same,log2 fold change,Nexturastat A,inactive: 0.29
same,log2 fold change,[6],inactive: 0
same,log2 fold change,givinostat,inactive: 0.199
same,log2 fold change,barasertib,inactive: -0.11
ALDH1L1 isoform 3 (UniProt O75891),log2 fold change,[8],inactive: 0.01
AGTRAP isoform 2 (UniProt Q6RW13),log2 fold change,[7],inactive: -0.023
same,log2 fold change,[9],inactive: 0.112
same,log2 fold change,givinostat,inactive: -0.081
ALAS1 (UniProt P13196),log2 fold change,ibrutinib,inactive: 0.155
same,log2 fold change,[1],inactive: -0.002
same,log2 fold change,[2],inactive: -0.107
same,log2 fold change,[7],inactive: -0.038
same,log2 fold change,[8],inactive: 0.145
same,log2 fold change,[4],inactive: 0.016
same,log2 fold change,Nexturastat A,inactive: 0.009
same,log2 fold change,[5],inactive: 0.005
same,log2 fold change,[6],inactive: 0.041
same,log2 fold change,givinostat,inactive: 0.088
same,log2 fold change,barasertib,inactive: -0.02
AKNA (UniProt Q7Z591),log2 fold change,[7],active: -0.659
same,log2 fold change,[8],inactive: 0.079
same,log2 fold change,[4],inactive: -0.047
same,log2 fold change,[5],inactive: -0.02
same,log2 fold change,givinostat,inactive: 0.177
AHSP (UniProt Q9NZD4),log2 fold change,ralimetinib,inactive: 0.232
same,log2 fold change,[7],inactive: 0.098
same,log2 fold change,[10],inactive: -0.185
same,log2 fold change,[3],inactive: -0.024
same,log2 fold change,[11],inactive: 0.101
same,log2 fold change,[6],inactive: 0.181
same,log2 fold change,givinostat,inactive: -0.172
ALDH7A1 (UniProt P49419),log2 fold change,[2],inactive: 0.166
same,log2 fold change,[8],inactive: -0.104
same,log2 fold change,Nexturastat A,inactive: 0.037
same,log2 fold change,[6],inactive: 0.297
AKTIP isoform 2 (UniProt Q9H8T0),log2 fold change,ibrutinib,inactive: -0.001
same,log2 fold change,[2],inactive: 0.027
same,log2 fold change,[8],inactive: 0.054
same,log2 fold change,[4],inactive: 0.068
same,log2 fold change,Nexturastat A,inactive: 0.103
same,log2 fold change,[5],inactive: 0.075
same,log2 fold change,[6],inactive: -0.099
same,log2 fold change,barasertib,inactive: 0.389
ANAPC11 (UniProt Q9NYG5),log2 fold change,ibrutinib,inactive: 0.025
same,log2 fold change,[7],inactive: -0.117
same,log2 fold change,vemurafenib,inactive: -0.009
same,log2 fold change,givinostat,inactive: 0.211
same,log2 fold change,barasertib,inactive: 0.007
ADCY7 (UniProt P51828),log2 fold change,[1],inactive: -0.037
same,log2 fold change,ralimetinib,inactive: -0.034
same,log2 fold change,[2],inactive: -0.076
same,log2 fold change,[10],inactive: 0.075
same,log2 fold change,[3],inactive: -0.254
same,log2 fold change,[11],inactive: 0.079
same,log2 fold change,Nexturastat A,inactive: 0.07
AMDHD2 (UniProt Q9Y303),log2 fold change,[7],inactive: -0.002
same,log2 fold change,[9],inactive: -0.011
same,log2 fold change,[8],inactive: 0.058
same,log2 fold change,[4],inactive: -0.08
same,log2 fold change,vemurafenib,inactive: -0.012
same,log2 fold change,[5],inactive: -0.085
same,log2 fold change,givinostat,inactive: -0.16
AIG1 (UniProt Q9NVV5),log2 fold change,[1],inactive: -0.273
same,log2 fold change,[9],inactive: 0.214
ANAPC13 (UniProt Q9BS18),log2 fold change,[2],inactive: 0.168
same,log2 fold change,Nexturastat A,inactive: -0.038

# Four successive records out of the list so far, quoted:
target,measurement,setting,value
ALMS1 (UniProt Q8TCU4),log2 fold change,barasertib,inactive: 0.086
ADD2 isoform 9 (UniProt P35612),log2 fold change,ibrutinib,inactive: -0.098
same,log2 fold change,ralimetinib,inactive: 0.145
same,log2 fold change,[10],inactive: -0.103

# Some of the entries so far, with tabs:
target	measurement	setting	value
AMOTL1 (UniProt Q8IY63)	log2 fold change	barasertib	inactive: -0.119
AMMECR1 (UniProt Q9Y4X0)	log2 fold change	[10]	inactive: 0.043
ALOX12B (UniProt O75342)	log2 fold change	ibrutinib	inactive: -0.036
AHSP (UniProt Q9NZD4)	log2 fold change	[6]	inactive: 0.181

# Shown with tabs: entries from further up.
target	measurement	setting	value
ALOX12B (UniProt O75342)	log2 fold change	[4]	inactive: 0.268
same	log2 fold change	vemurafenib	inactive: 0.489
